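Genome-wide siRNA knockdown in TC32 Ewing sarcoma cells, comparing luciferase light from an NR0B1-promoter reporter with a CMV-promoter reporter 48 hours after transfection.
Each siRNA was applied at 20 nM.
A z-score of the log NR0B1-over-CMV signal, less the median of siRNAs with the same seed; more negative means a stronger specific loss of the NR0B1 reporter.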

The strongest results of the screen are mostly left out here.
Sequences are the guide (antisense) strand, without overhang.

Sequence,gene,seed-corrected z-score
UGAAGGUCCGCAGUGAGUU,IGFALS,0.29
UGAUGUUUAAAUACUGAGC,COL9A2,-0.2939
UUCAUAUCAACCAACUGAG,FGA,-1.513
UAGAUAAUACUGUCCUUUG,TRMT10C,0.5243
UUCAAACUCGGUACAUCUG,C8orf44,1.092
UACUAGUCCAUUUGUGAGC,GRAPL,-1.727
UUCAUUUCUUGACAUGUGG,C1orf105,1.604
AAAGAUGCUACCAUCGAUG,GAREM2,0.09947
UUUGCUCCGAAAACCAGUC,ACR,1.149
UUCUGAGCCUCUGUUAGUG,COPS7A,0.9976
AUCGGUUCAGAAAUAACAC,SECISBP2L,0.9578
UUUAUACGAAUUCAAAUCC,SAXO2,-0.4229
AUUCGGUUCUUGUUGAGGG,C10orf11,-0.2871
UUUGGGUGCACAUGUCUCU,SPRR4,0.3691
AAAUGGGUGACAACUGCUG,NRSN2,0.2179
AAAGUUCCUAGGUCUCCGC,NKX2-5,1
UAUUCUUGUCUGAGCAUCC,LPAL2,0.2665
AUAGGCACUGUUUUCUUCC,CA9,0.9704
AGAGCGACCAGUUAUUCUC,SGK223,0.3152
AUUGUUCCCAGUAAGACUG,TGDS,1.659
AUGGACAUUACAACCAGGG,MEA1,0.7614
AUGGGAUUGAUCAUGGAGU,GPR6,0.3158
ACUGUUUCCAGGUCGUCUG,USP31,-0.4581
UCUCGUUAAUGAUCAGUUC,PAK2,0.1691
AGAAUGACCAGGCUGAUCC,TMEM266,-1.168
UAUUGGUCGAUCUGAGCCU,RTN2,-0.03467
AAAGGUCUACAAAUGAUAG,OR5I1,1.879
AGAUGUCCUAGAUAGGUCC,ADGRG2,0.5377
UAUGUGAUCAGUGGACCUG,CASS4,0.5173
UUCUUGAACAUCUCGCUCC,COL4A1,1.876
UACAAUGCCAGGUAGGGUU,DYNLL2,0.6953
UCAAUGCAUAGCCCUUCCU,TBC1D27,0.8934
UCAUAGUCAUCUGAUGUCG,TNRC18P1,0.9132
UGUCGAGUAAGGUAGGUAG,KLHL11,1.769
UUGGUGAUGAAGAUAGACA,SCN1B,-0.01017
AAAGCAGUGACAUGAGGAC,LINC00998,0.02118
UAAGGCUUGUCCAUCUUUG,INSL4,0.2323
UUUUGUAAAAGUCACUCUG,STEAP2,0.8751
UCGGUUAGCACCACCAUGC,TMEM143,1.086
UUAUCAUUAUGCAGAAUGA,RPLP1P7,0.5014
UUCCGAUCACUCGAUUUGC,UEVLD,-0.6146
UAACCGUAAACGAUACCAC,SEC63,0.1161
UUCGAGUUAAAGGUGGAGG,SSFA2,1.29
AUAGCUAACCCAUUAGGCC,LRP4,0.4438
UCAUCGUCACGUGCAUUCC,CENPJ,-0.2255
UCUUGUCCAAGGGUUACCG,A1CF,-0.4117
UCGGAUUCAAGGAUGUCAC,CCDC30,1.117
AUGUUGUGAAGCACGAUGC,RNF152,-0.5033
UAAAUGGGAACCGCUUUCU,TEX29,0.2609
AAGGAAAUUAAAUAGGAGG,MAS1L,-0.3311
UUCUCAAUCAUCCGUAUCC,ARHGAP26,-0.8504
UAUUUUCCGACUGUAAAGC,RND3,1.012
UGACUUGAGACAGUGAUAG,ITGA10,-0.8059
UUGGUCAUCAGUUUUUGUU,NARF,-0.1455
UAGAUUCCGAUCAACACCA,SLC12A9,0.5819
UAAAUAAGUAGAACCCUCG,CXCL3,1.411
UCUGAUCUGCGUGUGGUUC,GAL3ST2,0.444
UAUUUGAAGACUUUUCUGU,LOC646865,-0.2358
UUCUUUACAUGCAUCUCUU,DEFB126,0.5123
UGUUUGUCUGAAUCAUCCC,ZC3HAV1,-0.1761
UAGCUGACUGCAGUCAUCC,ZBED8,-0.09248
UUCCGAUCACUGUACAUUC,UTRN,-0.9189
UUUAUACCAGUAUGGAUUG,ZNF540,-0.4277
UUGUCUCCCGGGAUGUUCU,OSCP1,-0.7209
UAACGCAGGAUGGAUAUAG,OR12D2,0.5865
UCAGAUGUAAAACUGAUUG,NEURL3,0.929
UGUGCAACCAGACAGGUCA,ENG,-0.05388
UCAUCUAACCCUCCAAUUG,KLHL8,0.4313
UCUGUUUCCAGCCUUCUUC,HDAC7,0.02778
ACAGGUAAUAGAAGAAGGA,CNIH2,2.133
UUCUGGUCAAUGGAAUCCC,PLCG2,0.141
UCUUCGGUUAUGAAGCUGC,PARP1,0.2521
AAACCUGAUGAUGUCACCA,LOC643554,1.197
UCACCUUGGAUAACAUUGC,NSFP1,0.2815
UUUGCAACUUGAAGGAUCU,ADAMTSL1,0.9718
AUAGGCUUCCUCGUAAUCC,FAM183BP,-0.4089
UUCAAGCAACCGUCAUUGG,RPS23,2.846
UACUGGAACAUACCGCUUC,EXOSC3,0.2096
ACAGUUCACAUUUGUAGCC,FGF7,2.658

Once more, the final 10:

ACAGGUAAUAGAAGAAGGA against CNIH2 read seed-corrected z-score 2.133.
UUCUGGUCAAUGGAAUCCC against PLCG2 read seed-corrected z-score 0.141.
UCUUCGGUUAUGAAGCUGC against PARP1 read seed-corrected z-score 0.2521.
AAACCUGAUGAUGUCACCA against LOC643554 read seed-corrected z-score 1.197.
UCACCUUGGAUAACAUUGC against NSFP1 read seed-corrected z-score 0.2815.
UUUGCAACUUGAAGGAUCU against ADAMTSL1 read seed-corrected z-score 0.9718.
AUAGGCUUCCUCGUAAUCC against FAM183BP read seed-corrected z-score -0.4089.
UUCAAGCAACCGUCAUUGG against RPS23 read seed-corrected z-score 2.846.
UACUGGAACAUACCGCUUC against EXOSC3 read seed-corrected z-score 0.2096.
ACAGUUCACAUUUGUAGCC against FGF7 read seed-corrected z-score 2.658.

Source: PubChem BioAssay AID1159506 (NCATS, 2015).